In publication PMC11613955:
No constants are given. Whether binding was seen depends on the method and setting. In cells and extracts the contact can be indirect. Some entries that bind do so weakly or less than the wild type. Where a sequence is shown, tags or fusion partners need not be part of it.

Biological target: T1, 3xFLAG-HA tagged PATZ1 (POZ/BTB and AT-Hook-Containing Zinc Finger Protein 1) (mouse) (UniProt Q5NBY9)
T1 sequence: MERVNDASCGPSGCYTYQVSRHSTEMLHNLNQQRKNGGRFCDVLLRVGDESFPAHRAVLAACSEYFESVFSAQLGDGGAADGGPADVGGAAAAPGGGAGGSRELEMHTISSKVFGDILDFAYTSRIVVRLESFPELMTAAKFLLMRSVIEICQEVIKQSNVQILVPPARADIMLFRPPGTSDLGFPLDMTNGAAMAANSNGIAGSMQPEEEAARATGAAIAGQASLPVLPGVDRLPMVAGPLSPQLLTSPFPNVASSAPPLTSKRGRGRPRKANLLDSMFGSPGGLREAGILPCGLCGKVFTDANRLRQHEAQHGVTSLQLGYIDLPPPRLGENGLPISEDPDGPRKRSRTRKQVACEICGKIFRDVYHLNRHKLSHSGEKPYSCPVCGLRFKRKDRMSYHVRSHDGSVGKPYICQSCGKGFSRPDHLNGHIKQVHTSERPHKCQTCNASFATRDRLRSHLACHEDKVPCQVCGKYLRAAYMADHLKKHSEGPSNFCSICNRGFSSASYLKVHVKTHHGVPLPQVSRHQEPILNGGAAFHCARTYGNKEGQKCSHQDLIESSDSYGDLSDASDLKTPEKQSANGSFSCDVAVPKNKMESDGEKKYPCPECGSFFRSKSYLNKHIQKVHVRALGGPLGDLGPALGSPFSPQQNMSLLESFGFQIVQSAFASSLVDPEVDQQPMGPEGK
Experiment: co-IP; nuclear extracts of FH-PATZ1 and E14 WT mESCs; NaCl diluted to 250 mM, 0.1% NP40; anti-FLAG M2 magnetic beads; bound proteins released with SDS loading buffer; western blot for RAD21, FLAG and CTCF

binding: binds
B1: RAD21 (protein, UniProt Q61550 1-635)
chain: MFYAHFVLSKRGPLAKIWLAAHWDKKLTKAHVFECNLESSVESIISPKVKMALRTSGHLLLGVVRIYHRKAKYLLADCNEAFIKIKMAFRPGVVDLPEENREAAYNAITLPEEFHDFDQPLPDLDDIDVAQQFSLNQSRVEEITMREEVGNISILQENDFGDFGMDDREIMREGSAFEDDDMLVSTSASNLLLEPEQSTSNLNEKMNHLEYEDQYKDDNFGEGNDGGILDDKLISNNDGGIFDDPPALSEAGVMLPEQPAHDDMDEDDNGSLGGPDSPDSVDPVEPMPTMTDQTTLVPNEEEAFALEPIDITVKETKAKRKRKLIVDSVKELDSKTIRAQLSDYSDIVTTLDLAPPTKKLMMWKETGGVEKLFFLPAQPLWNNRLLKLFTRCLTPLVPEDLRKRRKGGEADNLDEFLKEFENPEVPREEQQPQQQQPQPQRDVIDEPIIEEPSRLQDSVMEASRTTIEESAMPPPPPQGVKRKAGQIDPEPSIPPQQVEQMEIPPVELPPEEPPNICQLIPELELLPEKEKEKEKEKEEEEEEEDEDASGGDQDQEERRWNKRTQQMLHGLQRALAKTGAESISLLELCRNTNRKQAAAKFYSFLVLKKQQAIELTQEEPYSDIIATPGPRFHII
